Measurements taken from US20190169250A1.
No constants are given. Whether binding was seen depends on the method and setting. Some results given as binding are weak or reduced against the parent protein; the word gives no strength. Sequences can lack the tags named with a protein. Values belong to the binder of their own block, whether it stands above or below them.

Sequences of proteins named here, by UniProt entry; tags and fusion partners are left off. Residues count along the entry.
11A12, a recombinantly expressed ED-A (P02751, residues 1632-1903): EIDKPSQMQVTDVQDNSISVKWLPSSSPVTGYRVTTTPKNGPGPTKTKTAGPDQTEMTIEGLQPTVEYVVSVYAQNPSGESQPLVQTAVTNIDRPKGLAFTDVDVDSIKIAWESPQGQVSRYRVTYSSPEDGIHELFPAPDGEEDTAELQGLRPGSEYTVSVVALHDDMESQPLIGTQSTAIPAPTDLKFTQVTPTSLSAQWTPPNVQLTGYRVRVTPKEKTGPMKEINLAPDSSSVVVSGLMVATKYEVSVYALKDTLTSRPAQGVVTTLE
Recombinant EDA-domain (P02751, residues 1722-1811): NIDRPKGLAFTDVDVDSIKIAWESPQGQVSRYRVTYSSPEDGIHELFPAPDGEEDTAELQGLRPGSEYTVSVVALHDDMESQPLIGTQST

Assays:
[1] = target: Recombinant EDA-domain (UniProt P02751); experiment: ELISA on immobilized recombinant EDA-domain
[2] = target: 11A12, a recombinantly expressed ED-A (UniProt P02751); experiment: SPR (Biacore), ED-A coated chip
[3] = target: Recombinant EDA-domain (UniProt P02751); experiment: ELISA, ED-A coated wells, protein A-HRP detection
[4] = target: 11A12, a recombinantly expressed ED-A (UniProt P02751); experiment: SPR (Biacore 3000), 11A12 coated chip

binding [1]: binds
binding [2]: binds
binding [3]: binds
binding [4]: binds
B1: muIL22-F8 fusion protein (protein)
chain: LPVNTRCKLEVSNFQQPYIVNRTFMLAKEASLADNNTDVRLIGEKLFRGVSAKDQCYLMKQVLNFTLEDVLLPQSDRFQPYMQEVVPFLTKLSNQLSSCHISGDDQNIQKNVRRLKETVKKLGESGEIKAIGELDLLFMSLRNACVGGGGSGGGGSGGGGSEVQLLESGGGLVQPGGSLRLSCAASGFTFSLFTMSWVRQAPGKGLEWVSAISGSGGSTYYADSVKGRFTISRDNSKNTLYLQMNSLRAEDTAVYYCAKSTHLYLFDYWGQGTLVTVSSGGSGGEIVLTQSPGTLSLSPGERATLSCRASQSVSMPFLAWYQQKPGQAPRLLIYGASSRATGIPDRFSGSGSGTDFTLTISRLEPEDFAVYYCQQMRGRPPTFGQGTKVEIK

binding [1]: binds
binding [2]: binds
binding [3]: binds
binding [4]: binds
B2: F8-muIL22 fusion protein (protein)
chain: EVQLLESGGGLVQPGGSLRLSCAASGFTFSLFTMSWVRQAPGKGLEWVSAISGSGGSTYYADSVKGRFTISRDNSKNTLYLQMNSLRAEDTAVYYCAKSTHLYLFDYWGQGTLVTVSSGGSGGEIVLTQSPGTLSLSPGERATLSCRASQSVSMPFLAWYQQKPGQAPRLLIYGASSRATGIPDRFSGSGSGTDFTLTISRLEPEDFAVYYCQQMRGRPPTFGQGTKVEIKGGGGSGGGGSGGGGSLPVNTRCKLEVSNFQQPYIVNRTFMLAKEASLADNNTDVRLIGEKLFRGVSAKDQCYLMKQVLNFTLEDVLLPQSDRFQPYMQEVVPFLTKLSNQLSSCHISGDDQNIQKNVRRLKETVKKLGESGEIKAIGELDLLFMSLRNACV
